Some of the results follow.

Protein sequences, listed by entry. Tags and fused reporters are not part of them. Lines headed by an entry give the natural chain unless they say otherwise; changes in a name come on top.
UniProt Q99700, whole entry, looked up: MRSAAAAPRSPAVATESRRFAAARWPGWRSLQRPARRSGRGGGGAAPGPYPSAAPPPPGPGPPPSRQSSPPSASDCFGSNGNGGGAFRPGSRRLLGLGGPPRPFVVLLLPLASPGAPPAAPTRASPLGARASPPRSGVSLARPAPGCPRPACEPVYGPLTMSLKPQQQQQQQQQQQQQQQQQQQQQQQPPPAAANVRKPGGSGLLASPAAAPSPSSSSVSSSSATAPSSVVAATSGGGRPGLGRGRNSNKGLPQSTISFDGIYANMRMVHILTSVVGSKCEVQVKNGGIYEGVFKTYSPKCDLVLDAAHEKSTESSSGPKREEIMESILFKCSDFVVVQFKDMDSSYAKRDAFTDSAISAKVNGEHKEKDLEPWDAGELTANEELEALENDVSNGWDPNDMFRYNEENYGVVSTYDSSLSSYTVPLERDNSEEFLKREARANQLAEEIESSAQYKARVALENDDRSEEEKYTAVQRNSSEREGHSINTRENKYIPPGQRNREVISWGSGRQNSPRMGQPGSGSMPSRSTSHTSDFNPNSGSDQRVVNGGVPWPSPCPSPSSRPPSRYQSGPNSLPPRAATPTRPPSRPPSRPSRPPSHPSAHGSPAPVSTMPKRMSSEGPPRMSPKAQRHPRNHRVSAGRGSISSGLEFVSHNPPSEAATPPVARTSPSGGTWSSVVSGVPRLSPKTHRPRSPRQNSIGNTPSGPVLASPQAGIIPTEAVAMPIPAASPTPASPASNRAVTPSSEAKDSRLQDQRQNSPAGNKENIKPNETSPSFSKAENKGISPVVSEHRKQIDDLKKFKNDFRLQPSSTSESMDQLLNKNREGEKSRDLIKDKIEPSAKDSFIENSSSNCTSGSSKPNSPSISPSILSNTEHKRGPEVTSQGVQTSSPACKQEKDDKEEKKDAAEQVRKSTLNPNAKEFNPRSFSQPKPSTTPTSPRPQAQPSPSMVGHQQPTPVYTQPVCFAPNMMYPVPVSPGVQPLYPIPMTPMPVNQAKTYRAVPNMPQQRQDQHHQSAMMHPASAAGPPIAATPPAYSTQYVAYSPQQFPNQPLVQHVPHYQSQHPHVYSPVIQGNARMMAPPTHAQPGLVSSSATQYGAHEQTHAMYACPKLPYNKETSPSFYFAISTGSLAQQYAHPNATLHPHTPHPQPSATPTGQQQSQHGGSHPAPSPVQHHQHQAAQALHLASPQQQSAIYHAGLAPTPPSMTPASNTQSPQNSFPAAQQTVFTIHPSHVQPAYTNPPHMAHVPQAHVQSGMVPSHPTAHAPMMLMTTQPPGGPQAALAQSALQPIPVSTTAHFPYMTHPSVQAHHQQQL
UniProt Q9UHR4: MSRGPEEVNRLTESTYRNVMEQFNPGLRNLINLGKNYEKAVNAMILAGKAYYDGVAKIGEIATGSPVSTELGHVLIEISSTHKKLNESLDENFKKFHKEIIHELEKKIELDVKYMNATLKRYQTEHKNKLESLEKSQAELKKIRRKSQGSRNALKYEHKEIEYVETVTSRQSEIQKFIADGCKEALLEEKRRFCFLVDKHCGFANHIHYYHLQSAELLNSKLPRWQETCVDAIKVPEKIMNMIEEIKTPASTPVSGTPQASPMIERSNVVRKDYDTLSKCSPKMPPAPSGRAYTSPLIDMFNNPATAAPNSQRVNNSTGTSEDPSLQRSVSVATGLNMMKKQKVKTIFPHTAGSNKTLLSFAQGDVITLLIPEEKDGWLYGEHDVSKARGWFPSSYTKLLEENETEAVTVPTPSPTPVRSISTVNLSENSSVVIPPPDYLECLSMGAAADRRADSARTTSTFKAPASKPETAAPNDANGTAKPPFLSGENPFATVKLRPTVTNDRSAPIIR
UniProt Q9P287, whole entry, looked up: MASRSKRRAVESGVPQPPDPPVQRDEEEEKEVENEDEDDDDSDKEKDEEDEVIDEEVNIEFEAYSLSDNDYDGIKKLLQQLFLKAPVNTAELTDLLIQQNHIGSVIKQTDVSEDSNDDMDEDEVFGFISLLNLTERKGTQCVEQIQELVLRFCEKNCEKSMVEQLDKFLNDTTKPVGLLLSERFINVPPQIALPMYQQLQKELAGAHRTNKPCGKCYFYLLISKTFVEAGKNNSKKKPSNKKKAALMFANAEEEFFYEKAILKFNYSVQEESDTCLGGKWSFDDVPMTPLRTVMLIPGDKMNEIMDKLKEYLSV
UniProt Q8TD16, whole entry, looked up: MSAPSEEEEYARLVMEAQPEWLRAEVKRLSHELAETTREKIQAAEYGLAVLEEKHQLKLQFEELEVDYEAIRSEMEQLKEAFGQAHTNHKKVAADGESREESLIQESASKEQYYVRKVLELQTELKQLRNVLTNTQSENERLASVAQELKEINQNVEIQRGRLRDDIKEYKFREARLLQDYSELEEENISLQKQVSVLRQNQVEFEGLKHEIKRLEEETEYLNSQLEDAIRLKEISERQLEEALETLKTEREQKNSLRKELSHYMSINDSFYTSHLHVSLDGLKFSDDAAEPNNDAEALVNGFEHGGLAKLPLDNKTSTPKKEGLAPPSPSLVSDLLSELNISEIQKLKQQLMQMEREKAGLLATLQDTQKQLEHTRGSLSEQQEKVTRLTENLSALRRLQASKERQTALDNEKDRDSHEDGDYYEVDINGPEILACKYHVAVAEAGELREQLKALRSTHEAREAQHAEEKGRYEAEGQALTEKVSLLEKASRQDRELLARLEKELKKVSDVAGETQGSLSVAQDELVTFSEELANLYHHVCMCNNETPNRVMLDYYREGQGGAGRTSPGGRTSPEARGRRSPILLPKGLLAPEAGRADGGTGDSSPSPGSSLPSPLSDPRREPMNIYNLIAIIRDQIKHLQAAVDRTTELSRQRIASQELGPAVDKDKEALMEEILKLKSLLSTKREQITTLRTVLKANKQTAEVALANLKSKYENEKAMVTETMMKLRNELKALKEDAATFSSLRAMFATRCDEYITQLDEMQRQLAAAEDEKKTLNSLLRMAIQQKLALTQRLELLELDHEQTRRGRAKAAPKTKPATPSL
UniProt Q96GX2: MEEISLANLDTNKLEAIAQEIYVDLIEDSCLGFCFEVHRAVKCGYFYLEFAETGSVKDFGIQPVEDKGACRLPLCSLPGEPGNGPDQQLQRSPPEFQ
UniProt Q8WWM7: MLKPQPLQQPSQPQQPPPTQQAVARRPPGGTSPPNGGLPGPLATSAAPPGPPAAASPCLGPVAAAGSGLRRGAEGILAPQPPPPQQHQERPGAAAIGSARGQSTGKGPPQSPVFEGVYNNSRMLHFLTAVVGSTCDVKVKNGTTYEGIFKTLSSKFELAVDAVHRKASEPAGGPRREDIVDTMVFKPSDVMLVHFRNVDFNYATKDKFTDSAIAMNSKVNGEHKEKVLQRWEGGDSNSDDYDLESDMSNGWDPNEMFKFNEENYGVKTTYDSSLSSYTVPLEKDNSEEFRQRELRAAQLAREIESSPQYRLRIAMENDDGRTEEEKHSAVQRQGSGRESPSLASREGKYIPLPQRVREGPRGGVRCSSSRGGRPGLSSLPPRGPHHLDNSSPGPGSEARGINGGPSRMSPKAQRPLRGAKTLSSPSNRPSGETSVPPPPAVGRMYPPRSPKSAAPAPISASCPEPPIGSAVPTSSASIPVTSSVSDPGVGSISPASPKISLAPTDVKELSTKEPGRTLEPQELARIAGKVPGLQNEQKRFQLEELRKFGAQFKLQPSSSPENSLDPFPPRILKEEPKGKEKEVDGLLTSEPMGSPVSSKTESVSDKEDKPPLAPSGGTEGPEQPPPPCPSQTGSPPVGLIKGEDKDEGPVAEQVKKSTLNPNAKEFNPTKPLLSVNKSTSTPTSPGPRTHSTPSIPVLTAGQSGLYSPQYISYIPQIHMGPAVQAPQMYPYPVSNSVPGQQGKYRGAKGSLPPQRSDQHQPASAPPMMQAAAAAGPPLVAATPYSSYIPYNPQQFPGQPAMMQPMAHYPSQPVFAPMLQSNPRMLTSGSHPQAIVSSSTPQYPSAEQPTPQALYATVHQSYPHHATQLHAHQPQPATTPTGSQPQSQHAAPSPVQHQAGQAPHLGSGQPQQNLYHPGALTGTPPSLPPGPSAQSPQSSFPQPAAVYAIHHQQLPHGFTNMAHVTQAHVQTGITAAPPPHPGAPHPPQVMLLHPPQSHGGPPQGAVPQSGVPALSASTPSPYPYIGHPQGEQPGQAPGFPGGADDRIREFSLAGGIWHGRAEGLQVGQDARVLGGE
UniProt O94766: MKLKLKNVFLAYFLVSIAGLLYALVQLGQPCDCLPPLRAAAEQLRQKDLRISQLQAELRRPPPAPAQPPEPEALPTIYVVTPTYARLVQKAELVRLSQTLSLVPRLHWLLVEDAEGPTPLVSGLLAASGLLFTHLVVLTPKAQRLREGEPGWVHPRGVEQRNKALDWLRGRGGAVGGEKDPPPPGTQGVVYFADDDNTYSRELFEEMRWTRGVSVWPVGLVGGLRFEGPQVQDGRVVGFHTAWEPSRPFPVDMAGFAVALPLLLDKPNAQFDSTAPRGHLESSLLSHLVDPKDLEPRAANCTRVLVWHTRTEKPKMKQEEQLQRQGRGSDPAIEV
UniProt Q67FW5: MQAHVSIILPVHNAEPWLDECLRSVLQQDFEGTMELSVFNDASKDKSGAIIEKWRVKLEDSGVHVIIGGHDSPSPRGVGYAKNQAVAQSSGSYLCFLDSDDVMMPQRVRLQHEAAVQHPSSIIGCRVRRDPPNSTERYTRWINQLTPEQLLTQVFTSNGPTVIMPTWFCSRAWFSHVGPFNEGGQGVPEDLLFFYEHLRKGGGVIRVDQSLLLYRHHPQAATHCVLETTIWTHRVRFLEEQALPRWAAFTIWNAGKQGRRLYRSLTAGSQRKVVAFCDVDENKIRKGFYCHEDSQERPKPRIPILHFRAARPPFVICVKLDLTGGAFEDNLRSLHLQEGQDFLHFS
UniProt Q9NY97: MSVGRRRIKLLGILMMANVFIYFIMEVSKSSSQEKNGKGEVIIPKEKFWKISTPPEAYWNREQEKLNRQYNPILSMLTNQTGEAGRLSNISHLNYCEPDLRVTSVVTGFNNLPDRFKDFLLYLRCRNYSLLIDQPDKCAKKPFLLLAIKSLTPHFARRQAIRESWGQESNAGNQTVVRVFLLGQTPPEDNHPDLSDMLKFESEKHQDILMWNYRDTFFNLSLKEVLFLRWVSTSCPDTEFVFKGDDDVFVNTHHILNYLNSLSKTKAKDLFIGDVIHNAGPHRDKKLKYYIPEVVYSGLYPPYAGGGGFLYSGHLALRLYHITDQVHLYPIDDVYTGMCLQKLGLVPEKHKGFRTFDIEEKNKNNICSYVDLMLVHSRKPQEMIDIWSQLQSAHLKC
UniProt Q92560: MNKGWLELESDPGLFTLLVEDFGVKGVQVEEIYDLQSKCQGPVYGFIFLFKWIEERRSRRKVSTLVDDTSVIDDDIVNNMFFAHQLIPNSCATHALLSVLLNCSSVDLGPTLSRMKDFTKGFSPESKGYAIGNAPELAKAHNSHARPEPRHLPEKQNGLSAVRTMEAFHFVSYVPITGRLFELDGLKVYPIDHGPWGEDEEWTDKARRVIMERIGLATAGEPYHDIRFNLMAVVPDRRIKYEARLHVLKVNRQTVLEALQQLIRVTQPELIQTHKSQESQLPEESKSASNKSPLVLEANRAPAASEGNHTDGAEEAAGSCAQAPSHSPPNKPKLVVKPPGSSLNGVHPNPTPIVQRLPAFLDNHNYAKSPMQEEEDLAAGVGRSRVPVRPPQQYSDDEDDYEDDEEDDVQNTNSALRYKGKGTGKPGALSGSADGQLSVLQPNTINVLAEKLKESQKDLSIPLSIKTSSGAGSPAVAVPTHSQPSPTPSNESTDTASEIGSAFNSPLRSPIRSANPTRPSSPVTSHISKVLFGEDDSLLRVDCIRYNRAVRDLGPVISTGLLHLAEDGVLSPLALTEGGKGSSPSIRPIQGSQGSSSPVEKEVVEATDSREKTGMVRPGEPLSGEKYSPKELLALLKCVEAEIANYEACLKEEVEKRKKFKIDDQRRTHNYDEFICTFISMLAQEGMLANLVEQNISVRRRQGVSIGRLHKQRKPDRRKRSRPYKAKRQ
UniProt Q6QNY1: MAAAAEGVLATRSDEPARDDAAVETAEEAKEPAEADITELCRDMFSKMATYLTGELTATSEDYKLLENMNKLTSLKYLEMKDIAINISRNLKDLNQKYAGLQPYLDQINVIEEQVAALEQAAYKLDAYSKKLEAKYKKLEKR
UniProt O14965: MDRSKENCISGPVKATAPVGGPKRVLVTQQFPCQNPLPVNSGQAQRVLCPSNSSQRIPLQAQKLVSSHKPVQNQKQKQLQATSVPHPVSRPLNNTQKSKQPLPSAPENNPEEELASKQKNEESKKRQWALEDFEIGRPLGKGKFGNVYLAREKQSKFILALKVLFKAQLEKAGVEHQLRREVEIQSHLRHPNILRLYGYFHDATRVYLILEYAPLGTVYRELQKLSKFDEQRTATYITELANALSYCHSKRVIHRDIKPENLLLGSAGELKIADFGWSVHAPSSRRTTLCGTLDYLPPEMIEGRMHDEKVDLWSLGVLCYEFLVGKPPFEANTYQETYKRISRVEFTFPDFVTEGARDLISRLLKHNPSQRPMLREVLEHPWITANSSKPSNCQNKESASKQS

40 targets from the supplement of paper PMC10849652 can be followed below.

Compound in one experiment: C1=CC2=C(C=CC(=C2)/C=C\3/C(=O)NC(=NCC4=CC=CS4)S3)N=C1
Nature of the experiment: log2 fold change, soluble protein after heating vs DMSO (PISA); higher = thermal stabilisation; K562 cells, 10 uM, 30 min; active = over 0.2 and 3.5 SD of the protein, either way, in both replicates (recomputed). Put shortly: (§1)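 K562 cells at 2×10^6 cells/mL were exposed to 10 μM compound for 30 min, then aliquots were heated for 3 min across 48°C-58°C, pooled, and extracted in PBS containing 0.5% NP-40 at 4°C. The supernatant after 21,000xg for 90 min was taken as soluble protein and measured by TMTpro 16plex LC-MS/MS with channel sums equalised. Thermal stability is reported relative to control samples, with values from duplicates. Fold changes are given on a log2 scale.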
For ATXN2 (UniProt Q99700), the log2 fold change was inactive: -0.087.
On the same count and under the same terms, for BCAR1 isoform 6 (UniProt P56945) the value was inactive: 0.078.
As for BPGM (UniProt P07738), the log2 fold change was inactive: 0.002.
On to BRAP (UniProt Q7Z569), for which the log2 fold change was inactive: 0.001.
Still for that read-out and setting: for BAX isoform 2 (UniProt Q07812) the value was inactive: -0.037.
Turning to BPHL (UniProt Q86WA6), the log2 fold change is inactive: 0.142.
Same read-out and setting: for BCL2L2 isoform 2 (UniProt Q92843) the value was inactive: -0.003; for BACH1 (UniProt O14867), inactive: 0.03.
The same measure, in the same setting: for BAIAP2L1 (UniProt Q9UHR4) the value was inactive: 0.009; for BCCIP (UniProt Q9P287), inactive: -0.029.
Still for that read-out and setting: for BLOC1S4 (UniProt Q9NUP1) the value was inactive: 0.096; for BICD2 isoform 2 (UniProt Q8TD16), inactive: 0.129; for BAG6 isoform 3 (UniProt P46379), inactive: -0.02.
For BRIX1 (UniProt Q8TDN6), the log2 fold change is inactive: 0.003.
As to AUP1 (UniProt Q9Y679), the log2 fold change was inactive: 0.006.
On to B4GALT1 (UniProt P15291), for which the log2 fold change is inactive: -0.033.
On the same count and under the same terms, for BIRC2 (UniProt Q13490) the value was inactive: 0.108.
Same read-out and setting: for ATXN7L3B (UniProt Q96GX2) the value was inactive: 0.103; for ATXN2L (UniProt Q8WWM7), inactive: -0.029; for BORCS5 (UniProt Q969J3), inactive: -0.044.
With B3GAT3 (UniProt O94766), the log2 fold change was inactive: -0.031.
With BNIP2 (UniProt J3KN59), the log2 fold change is inactive: 0.087.
For B3GNTL1 (UniProt Q67FW5), the log2 fold change is inactive: 0.099.
On the same count and under the same terms, for BCAS2 (UniProt O75934) the value was inactive: -0.009.
Still for that read-out and setting: for BLOC1S6 (UniProt Q9UL45) the value was inactive: -0.026; for BLVRA (UniProt P53004), inactive: 0.026.
Still for that read-out and setting: for BOP1 (UniProt Q14137) the value was inactive: -0.053.
In the case of BCS1L (UniProt Q9Y276), the log2 fold change is inactive: 0.005.
Still for that read-out and setting: for BRCC3 (UniProt P46736) the value was inactive: 0.025; for BCCIP isoform 2 (UniProt Q9P287), inactive: -0.025.
For BOD1L1 (UniProt Q8NFC6), the log2 fold change is inactive: -0.034.
On the same count and under the same terms, for B3GNT2 (UniProt Q9NY97) the value was inactive: 0.065; for B4GALT3 (UniProt O60512), inactive: -0.161; for AVL9 (UniProt Q8NBF6), inactive: 0.067.
The same measure, in the same setting: for BAP1 (UniProt Q92560) the value was inactive: -0.128; for BLOC1S2 (UniProt Q6QNY1), inactive: 0.177; for BCAP29 isoform 2 (UniProt Q9UHQ4), inactive: -0.026.
Still for that read-out and setting: for BRAT1 (UniProt Q6PJG6) the value was inactive: -0.007.
With BORCS6 (UniProt Q96GS4), the log2 fold change was inactive: 0.055.
AURKA (UniProt O14965): the log2 fold change was inactive: -0.08.

Compound in the next experiment: C1=CC2=NC=CN=C2C=C1/C=C/3\C(=O)NC(=O)S3
The description is as above. Put shortly: as §1
Consider ATXN2 (UniProt Q99700), for which the log2 fold change was inactive: -0.007.
Same read-out and setting: for BCAR1 isoform 6 (UniProt P56945) the value was inactive: 0.008; for BPGM (UniProt P07738), inactive: 0.001; for BRAP (UniProt Q7Z569), inactive: 0.032.
Same read-out and setting: for BAX isoform 2 (UniProt Q07812) the value was inactive: 0.019; for BPHL (UniProt Q86WA6), inactive: 0.058.
As to BCL2L2 isoform 2 (UniProt Q92843), the log2 fold change was inactive: 0.058.
Still for that read-out and setting: for BACH1 (UniProt O14867) the value was inactive: 0.049; for BAIAP2L1 (UniProt Q9UHR4), inactive: 0.018; for BCCIP (UniProt Q9P287), inactive: 0.015.
On the same count and under the same terms, for BLOC1S4 (UniProt Q9NUP1) the value was inactive: 0.025; for BICD2 isoform 2 (UniProt Q8TD16), inactive: -0.001; for BAG6 isoform 3 (UniProt P46379), inactive: 0.035.
The same measure, in the same setting: for BRIX1 (UniProt Q8TDN6) the value was inactive: 0.046.
As to AUP1 (UniProt Q9Y679), the log2 fold change was inactive: 0.055.
On the same count and under the same terms, for B4GALT1 (UniProt P15291) the value was inactive: 0.07; for BIRC2 (UniProt Q13490), inactive: -0.023.
Consider ATXN7L3B (UniProt Q96GX2), for which the log2 fold change is inactive: 0.072.
The same measure, in the same setting: for ATXN2L (UniProt Q8WWM7) the value was inactive: -0.001; for BORCS5 (UniProt Q969J3), inactive: 0.034.
Still for that read-out and setting: for B3GAT3 (UniProt O94766) the value was inactive: 0.09; for BNIP2 (UniProt J3KN59), inactive: 0.016.
Still for that read-out and setting: for B3GNTL1 (UniProt Q67FW5) the value was inactive: 0.032; for BCAS2 (UniProt O75934), inactive: 0.103.
For BLOC1S6 (UniProt Q9UL45), the log2 fold change was inactive: 0.103.
On the same count and under the same terms, for BLVRA (UniProt P53004) the value was inactive: 0.003; for BOP1 (UniProt Q14137), inactive: 0.041.
Still for that read-out and setting: for BCS1L (UniProt Q9Y276) the value was inactive: 0.004.
Regarding BRCC3 (UniProt P46736), the log2 fold change was inactive: 0.025.
The same measure, in the same setting: for BCCIP isoform 2 (UniProt Q9P287) the value was inactive: 0.003; for BOD1L1 (UniProt Q8NFC6), inactive: -0.046; for B3GNT2 (UniProt Q9NY97), inactive: 0.016.
As for B4GALT3 (UniProt O60512), the log2 fold change is inactive: 0.043.
Still for that read-out and setting: for AVL9 (UniProt Q8NBF6) the value was inactive: 0.
On to BAP1 (UniProt Q92560), for which the log2 fold change was inactive: 0.06.
Still for that read-out and setting: for BLOC1S2 (UniProt Q6QNY1) the value was inactive: 0.052; for BCAP29 isoform 2 (UniProt Q9UHQ4), inactive: 0.086; for BRAT1 (UniProt Q6PJG6), inactive: -0.031.
On the same count and under the same terms, for BORCS6 (UniProt Q96GS4) the value was inactive: 0.021; for AURKA (UniProt O14965), inactive: -0.028.
